{"source": "PubChem BioAssay AID624297", "about": "(National Center for Advancing Translational Sciences (NCATS), 2012)", "note": "Hit rate of the full screen: of about 340,000 compounds, about 6,200 (1.8%) were called active. Inconclusive results, whose numbers are uncertain, are shown with a selection of clear calls. Calls come from the whole dose curve; as a rule, active = well fitted activation curve with a large enough effect; inconclusive = small, poorly fitted or top-dose-only effect; inactive = no such curve, though single readings can be large or run the other way. Potencies of inconclusive entries are doubtful fits and often do not repeat. Potency is the fitted concentration of half-maximal effect.", "data": [{"experiment": "A quantitative high throughput screen for small molecules that induce DNA re-replication in SW480 colon adenocarcinoma cells; note: nearly all actives have a fitted effect of over 55% in size.", "details": "Hoechst DNA content imaging, 48 h; series mostly up to 46.1 µM", "how_it_was_run": "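Treated cells incubate 48 hr (37 C, 5% CO2), are stained 40 min with Hoechst, and nuclear fluorescence is enumerated; a rise in nuclei with high DNA signal marks re-replication.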", "values": [{"smiles": "O=C(Nc1cccc(F)c1)Nc1ccc2c(c1)OCO2", "Potency": "inconclusive: 6.51 µM [activator, single point]"}, {"smiles": "O=C(NCc1csc(-c2cccs2)n1)c1cccc(Cl)c1", "Potency": "inconclusive: 29.1 µM [activator, single point]"}, {"smiles": "O=C(NC(=S)Nc1cccnc1Cl)c1ccco1", "Potency": "inactive"}, {"smiles": "O=C(CCc1ccccc1)NCC(c1ccco1)N1CCc2ccccc21", "note": "(stereo not given)", "Potency": "active: 18.4 µM"}, {"smiles": "O=C1C(Cl)=C(NC(=O)c2ccccc2)C(=O)C(Cl)=C1NC(=O)c1ccccc1", "Potency": "inconclusive: 2.59 µM [activator, full curve]"}, {"smiles": "O=C(CN1C(=O)c2ccccc2S1(=O)=O)NCc1c(F)cccc1F", "Potency": "inconclusive: 14.6 µM [activator, partial curve, poor fit]"}, {"smiles": "CC(=O)c1ccc(N2CCN(c3ccc(S(=O)(=O)NCCCN(C)C)cc3[N+](=O)[O-])CC2)cc1", "Potency": "inactive"}, {"smiles": "CC(C)CCn1c(N)c(S(=O)(=O)c2cccs2)c2nc3ccccc3nc21", "Potency": "inconclusive: 14.6 µM [activator, partial curve, poor fit]"}, {"smiles": "Cc1ccc(-n2nc3cc(Cl)c(NC(=O)c4ccco4)cc3n2)cc1", "Potency": "inconclusive: 18.4 µM [activator, single point]"}, {"smiles": "COCCC1CCCCN1C(=O)c1cccc(OC2CCN(C3CCCC3)CC2)c1", "note": "(stereo not given)", "Potency": "inconclusive: 15.8 µM [activator, single point]"}, {"smiles": "CC(NC(=O)c1ccc(F)cc1)C(c1cccs1)N1CCN(C)CC1", "note": "(stereo not given)", "Potency": "inconclusive: 29.1 µM [activator, single point]"}, {"smiles": "Cc1cccc(Cn2c(=O)n(CCCC(=O)NCc3ccco3)c(=O)c3ccccc32)c1", "Potency": "active: 20.6 µM"}, {"smiles": "CCN(CC(=O)NC(=O)Nc1ccccc1F)Cc1ccccc1", "Potency": "inactive"}, {"smiles": "Cc1ccc(OCC(=O)Nc2cc(C(=O)O)cc(C(=O)O)c2)cc1C", "Potency": "inconclusive: 29.1 µM [activator, single point]"}, {"smiles": "Cc1ccc(S(=O)(=O)[N-]c2nc3ccccc3nc2-n2cc[n+](CCC(C)C)c2)cc1", "Potency": "inactive"}, {"smiles": "CSc1ccccc1C(=O)NC1CCCc2ccccc21", "note": "(stereo not given)", "Potency": "inconclusive: 29.1 µM [activator, single point]"}, {"smiles": "c1ccc(C2=NNC(c3ccccn3)=NN2)nc1", "Potency": "inconclusive: 18.4 µM [activator, single point]"}, {"smiles": "Cc1cccc(NC(=O)[C@H](NC(=O)[C@@H]2Cc3ccccc3CN2)c2ccccc2)c1", "Potency": "inconclusive: 0.092 µM [activator, full curve, poor fit]"}, {"smiles": "CCSCCc1nnc(NC(=O)Nc2cccc(C(F)(F)F)c2)s1", "Potency": "inconclusive: 29.1 µM [activator, single point]"}, {"smiles": "Cc1ccc(S(=O)(=O)NCc2cccnc2)cc1", "Potency": "inconclusive: 1.16 µM [activator, partial curve, poor fit]"}, {"smiles": "O=C(CCC(=O)N(CC(=O)NC1CCCC1)c1ccc(F)cc1)Nc1nccs1", "Potency": "inactive"}, {"smiles": "O=C(NCc1ccccc1)C(c1ccc(F)cc1)N(Cc1cccs1)C(=O)c1cnccn1", "note": "(stereo not given)", "Potency": "inactive"}, {"smiles": "NC(=O)c1c(NC(=O)C(=O)N2CCOCC2)sc2c1CCC2", "Potency": "inactive"}, {"smiles": "O=[N+]([O-])c1ccc(SCc2ccncc2)nc1", "Potency": "inactive"}, {"smiles": "Cc1csc(NC(=O)c2cc(=O)[nH]c3ccc(S(=O)(=O)N4CCOCC4)cc23)n1", "Potency": "inconclusive: 6.51 µM [activator, single point]"}, {"smiles": "Cc1cccc(C(=O)N/N=C2\\CS(=O)(=O)N(C)c3ccsc32)c1", "Potency": "inconclusive: 23.1 µM [activator, single point]"}, {"smiles": "COc1ccc(OC)c(Nc2nc(N(C)c3ccccc3)nc(N)c2[N+](=O)[O-])c1", "Potency": "inactive"}, {"smiles": "O=C(CCNC(=O)C1CCN(S(=O)(=O)c2ccc(F)cc2)CC1)NCCc1cccc(F)c1", "Potency": "inconclusive: 20.6 µM [activator, single point]"}, {"smiles": "CCOc1ccc(N/N=C(/C#N)C(N)=O)cc1", "Potency": "inactive"}, {"smiles": "O=C(NNc1nc(-c2ccc(Br)cc2)cs1)c1ccco1", "Potency": "inconclusive: 29.1 µM [activator, single point]"}, {"smiles": "Cc1cccc(Nc2nc(N)nc(N)c2N=O)c1", "Potency": "inactive"}, {"smiles": "COc1ccc(C(C)(C)C)cc1NC(=O)C1=CC=CN2CCS(=O)(=O)N=C12", "Potency": "inactive"}, {"smiles": "CN1CCCC1CCNc1ccc2sc3ccccc3c(=O)c2c1", "note": "(stereo not given)", "Potency": "inconclusive: 2.91 µM [activator, full curve, poor fit]"}, {"smiles": "Cc1nn(-c2ccccc2)c(Cl)c1CN(C(=O)CCl)c1cccc2ccccc12", "Potency": "inconclusive: 20.6 µM [activator, single point]"}, {"smiles": "COc1ccc(N2CCc3c(C)nc4c(OC)cccc4c32)cc1", "Potency": "inconclusive: 4.11 µM [activator, full curve, poor fit]"}, {"smiles": "O=C1c2ccccc2C(=O)N1Cc1ccc2c(c1)OCO2", "Potency": "inactive"}, {"smiles": "Cc1cc(-c2ccc3c(c2)COc2c4ccccc4nn2-3)on1", "Potency": "inconclusive: 1.46 µM [activator, full curve, poor fit]"}, {"smiles": "COc1ccccc1C(=O)NCCC(=O)N(C)CC(=O)Nc1ccc(N2CCOCC2)cc1", "Potency": "inactive"}, {"smiles": "CCC1CN(C(=O)N2CCC(C(=O)NCc3cc(OC)c(OC)c(OC)c3)CC2)c2ccccc2O1", "note": "(stereo not given)", "Potency": "inactive"}, {"smiles": "O=C1COc2ccc(-c3csc(=Nc4ccc(OC(F)F)cc4)n3CC3CCCO3)cc2N1", "note": "(stereo not given)", "Potency": "inconclusive: 9.2 µM [activator, partial curve]"}, {"smiles": "COc1ccc(CCNC(=O)CSc2nc3scc(-c4ccccc4)c3c(=O)[nH]2)cc1", "Potency": "inconclusive: 14.1 µM [activator, partial curve, poor fit]"}, {"smiles": "O=S(=O)(c1ccc2nc(Nc3ccccc3)ccc2c1)N1CCCCC1", "Potency": "active: 2.82 µM"}, {"smiles": "O=C(CSc1nnc2ccccn12)NNC(=O)c1ccc(Cl)cc1", "Potency": "inconclusive: 0.231 µM [activator, single point]"}, {"smiles": "COCCCn1c(=O)/c(=C\\c2cccc(OC)c2OC)s/c1=C(/C#N)C(=O)Nc1ccc(C(=O)O)cc1", "Potency": "inconclusive: 18.4 µM [activator, partial curve, poor fit]"}, {"smiles": "O=C1c2cccc3c(N4CCCCC4)ccc(c23)C(=O)N1c1ccccn1", "Potency": "inactive"}]}]}
